Consider three molecules from publication PMC6650552.

Sequences of proteins named here, by UniProt entry; tags and fusion partners are left off. Residues count along the entry.
UniProt P14756, residues 24-498: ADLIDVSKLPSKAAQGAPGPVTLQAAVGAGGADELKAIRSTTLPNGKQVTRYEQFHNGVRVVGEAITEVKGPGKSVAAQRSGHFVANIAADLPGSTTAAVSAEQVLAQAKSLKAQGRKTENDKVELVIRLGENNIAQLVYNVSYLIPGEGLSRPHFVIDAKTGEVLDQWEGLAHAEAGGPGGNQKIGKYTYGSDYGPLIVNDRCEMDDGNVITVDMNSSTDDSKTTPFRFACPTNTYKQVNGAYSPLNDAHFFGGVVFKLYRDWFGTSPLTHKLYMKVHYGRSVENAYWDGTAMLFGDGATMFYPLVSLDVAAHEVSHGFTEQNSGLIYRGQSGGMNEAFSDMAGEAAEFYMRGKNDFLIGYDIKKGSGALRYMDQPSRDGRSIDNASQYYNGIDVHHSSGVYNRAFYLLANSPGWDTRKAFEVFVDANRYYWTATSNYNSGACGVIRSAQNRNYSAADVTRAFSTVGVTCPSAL
UniProt Q9I4X0: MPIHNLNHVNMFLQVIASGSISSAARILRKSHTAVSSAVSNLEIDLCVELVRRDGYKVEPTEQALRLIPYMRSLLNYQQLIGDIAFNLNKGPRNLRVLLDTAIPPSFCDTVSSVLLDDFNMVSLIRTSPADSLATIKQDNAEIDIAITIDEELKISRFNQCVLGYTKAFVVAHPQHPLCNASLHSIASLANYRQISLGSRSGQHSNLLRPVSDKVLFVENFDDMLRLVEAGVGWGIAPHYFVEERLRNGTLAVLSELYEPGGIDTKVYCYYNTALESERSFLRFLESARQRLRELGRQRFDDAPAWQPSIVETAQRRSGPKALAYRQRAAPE

In test [1] the target is T1, GST-AnvM (P. aeruginosa) (UniProt Q9HXD2).
T1 sequence: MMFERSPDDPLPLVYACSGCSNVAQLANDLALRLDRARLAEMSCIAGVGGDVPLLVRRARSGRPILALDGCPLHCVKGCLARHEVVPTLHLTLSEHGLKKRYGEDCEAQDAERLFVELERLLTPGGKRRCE
As to the kind of experiment: affinity purification with mass spectrometry; GST pulldown screen: cleared lysate of stationary-phase P. aeruginosa cells incubated with 40 ug purified GST-AnvM overnight at 4°C, glutathione-Sepharose beads, washed five times with TEN buffer (100 mM Tris-Cl pH 8.0, 10 mM EDTA, 300 mM NaCl); bands cut from a Coomassie-stained gel, trypsin, MALDI mass spectrometry; only the target purified.

Test [2] concerns the target T1, GST-AnvM (P. aeruginosa). The description is as above. The source holds these as a separate data set.

Where two headings read alike, the source gives them in different places. No constants are given. Whether binding was seen depends on the method and setting. Binding seen in cells or lysates may run through a third protein. These calls come from enrichment with a bait or labelling near it, and not all partners need be listed. Tags and fused reporters may be left off the sequences shown.

For the molecule LasB (from UniProt P14756 24-498), in test [1], the binding result is reported as “binds”.
On the same count and under the same terms, the value for MvfR (from UniProt Q9I4X0 1-332) was “binds”.

B1: Anr (protein, UniProt P23926 1-244)
chain: MAETIKVRALPQAHCKDCSLAPLCLPLSLTVEDMDSLDEIVKRGRPLKKGEFLFRQGDPFGSVFAVRSGALKTFSITDAGEEQITGFHLPSELVGLSGMDTETYPVSAQALETTSVCEIPFERLDELSEQLPQLRRQLMRLMSREIRDDQQMMLLLSKKTADERIATFLVNLSARFRARGFSAQQFRLAMSRNEIGNYLGLAVETVSRVFTRFQQNGLISAEGKEVHILDSIELCALAGGQLEG
For the molecule B1, the binding entry in test [2] is “binds”.
